The other results are listed elsewhere or left out.
What was measured:
Experiment in all cases: log2 fold change, soluble protein after heating vs DMSO (PISA); higher = thermal stabilisation; K562 lysate, 10 uM; active = over 0.2 and 3.5 SD of the protein, either way, in both replicates (recomputed)
[1] = compound: CCCS(=O)(=O)Nc1ccc(F)c(C(=O)c2c[nH]c3ncc(Cl)cc23)c1F
Summary of the method: (§1)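 Pellets of K562 cells were dounce-homogenised in PBS pH 7.4 with 1 mM MgCl2, and the crude extract was held at 1 mg/mL protein for a 30 min treatment with 10 μM compound. Aliquots were heated for 3 min over 48°C-58°C and pooled before NP-40 was added to 0.5% at 4°C. The supernatant from 21,000xg for 90 min was quantified by TMTpro 16plex LC-MS/MS with channel sums equalised. Values are reported from duplicates as log-two fold change in thermal stability relative to solvent controls.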

Amino acid sequences for entries named in this document (tags omitted). A change or cut given only in a name is not applied to a line headed by its entry.
UniProt Q9NW38: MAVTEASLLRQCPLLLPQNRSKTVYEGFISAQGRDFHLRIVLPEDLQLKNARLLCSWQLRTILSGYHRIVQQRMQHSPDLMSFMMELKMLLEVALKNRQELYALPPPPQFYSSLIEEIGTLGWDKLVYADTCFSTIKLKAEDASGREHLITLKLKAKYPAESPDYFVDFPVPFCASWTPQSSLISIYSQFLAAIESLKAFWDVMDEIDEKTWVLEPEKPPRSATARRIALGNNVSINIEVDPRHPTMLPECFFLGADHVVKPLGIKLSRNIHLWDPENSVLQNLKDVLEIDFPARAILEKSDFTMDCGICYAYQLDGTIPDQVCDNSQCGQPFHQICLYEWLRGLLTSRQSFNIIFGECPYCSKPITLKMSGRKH
UniProt Q9H9S5: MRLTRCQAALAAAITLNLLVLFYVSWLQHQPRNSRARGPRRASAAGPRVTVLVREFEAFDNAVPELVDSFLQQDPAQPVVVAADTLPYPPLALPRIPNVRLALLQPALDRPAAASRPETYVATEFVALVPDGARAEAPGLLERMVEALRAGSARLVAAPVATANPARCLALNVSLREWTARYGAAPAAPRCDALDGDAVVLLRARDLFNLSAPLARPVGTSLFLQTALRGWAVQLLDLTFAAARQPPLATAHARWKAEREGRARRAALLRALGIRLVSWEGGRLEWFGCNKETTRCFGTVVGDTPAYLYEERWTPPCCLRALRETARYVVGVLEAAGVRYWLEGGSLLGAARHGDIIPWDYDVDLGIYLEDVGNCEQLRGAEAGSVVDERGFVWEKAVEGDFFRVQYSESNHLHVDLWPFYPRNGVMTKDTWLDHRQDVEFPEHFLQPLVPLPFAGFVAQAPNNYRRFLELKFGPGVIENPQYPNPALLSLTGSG
UniProt Q96SL8: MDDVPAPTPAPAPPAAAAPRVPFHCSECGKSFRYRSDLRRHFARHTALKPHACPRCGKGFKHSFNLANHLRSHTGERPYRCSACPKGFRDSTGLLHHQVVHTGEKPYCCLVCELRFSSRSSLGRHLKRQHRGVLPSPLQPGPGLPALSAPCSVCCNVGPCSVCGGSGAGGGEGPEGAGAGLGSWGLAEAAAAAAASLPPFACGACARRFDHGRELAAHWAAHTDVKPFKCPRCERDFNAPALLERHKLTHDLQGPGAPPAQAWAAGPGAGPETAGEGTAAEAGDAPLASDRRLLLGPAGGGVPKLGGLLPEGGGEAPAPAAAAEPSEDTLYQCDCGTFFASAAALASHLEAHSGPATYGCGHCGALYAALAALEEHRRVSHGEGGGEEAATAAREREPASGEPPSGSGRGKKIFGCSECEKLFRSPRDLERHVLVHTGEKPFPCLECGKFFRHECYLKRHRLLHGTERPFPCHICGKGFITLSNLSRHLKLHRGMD
UniProt P0C2W1: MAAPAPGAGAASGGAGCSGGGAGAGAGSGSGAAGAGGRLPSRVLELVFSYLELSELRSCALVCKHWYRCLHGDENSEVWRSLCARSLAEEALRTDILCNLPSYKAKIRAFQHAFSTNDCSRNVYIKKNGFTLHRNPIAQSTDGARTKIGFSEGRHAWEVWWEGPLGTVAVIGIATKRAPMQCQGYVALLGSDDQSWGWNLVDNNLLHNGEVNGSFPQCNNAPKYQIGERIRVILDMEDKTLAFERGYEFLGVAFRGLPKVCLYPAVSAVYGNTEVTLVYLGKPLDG

barasertib = compound: CCN(CCCOc1ccc2c(Nc3cc(CC(=O)Nc4cccc(F)c4)[nH]n3)ncnc2c1)CCOP(=O)(O)O [barasertib]
Summary of the method: as §1

[2] = compound: CC[C@@H]1C(=O)N(C)c2cnc(Nc3ccc(C(=O)NC4CCN(C)CC4)cc3OC)nc2N1C1CCCC1
Summary of the method: as §1

volasertib = compound: CC[C@@H]1C(=O)N(C)c2cnc(Nc3ccc(C(=O)N[C@H]4CC[C@H](N5CCN(CC6CC6)CC5)CC4)cc3OC)nc2N1C(C)C [volasertib]
Summary of the method: as §1

[3] = compound: CCn1c(C(=O)N(C2CC2)C2CC2)cc2c3c(ncn3C)c(Nc3cc(C)n(C)n3)nc21
Summary of the method: as §1

[4] = compound: CCn1cc(-c2ccnc3[nH]c(-c4cccc(CN(C)C)c4)cc23)c(-c2ccc(NC(=O)N(C)C)cc2)n1
Summary of the method: as §1

[5] = compound: CN1CCC(CNc2ccc3ncc(-c4cccc(OC(F)(F)F)c4)n3n2)CC1
Summary of the method: as §1

saracatinib = compound: CN1CCN(CCOc2cc(OC3CCOCC3)c3c(Nc4c(Cl)ccc5c4OCO5)ncnc3c2)CC1 [saracatinib]
Summary of the method: as §1

sotrastaurin = compound: CN1CCN(c2nc(C3=C(c4c[nH]c5ccccc45)C(=O)NC3=O)c3ccccc3n2)CC1 [sotrastaurin]
Summary of the method: as §1

alvocidib = compound: CN1CC[C@H](c2c(O)cc(O)c3c(=O)cc(-c4ccccc4Cl)oc23)[C@H](O)C1 [alvocidib]
Summary of the method: as §1

Tubastatin A = compound: CN1CCc2c(c3ccccc3n2Cc2ccc(C(=O)NO)cc2)C1 [Tubastatin A]
Summary of the method: as §1

[6] = compound: CNC(=O)C1=CC=CC=C1NC2=NC(=NC=C2Cl)NC3=C(C=C(C=C3)N4CCOCC4)OC
Summary of the method: as §1

[7] = compound: CNc1nc(-c2ccc3c(N)n[nH]c3c2)cc(N2C[C@@H](C(=O)NC3CCCCC3)CC[C@H]2C)n1
Summary of the method: as §1

encorafenib = compound: COC(=O)N[C@@H](C)CNc1nccc(-c2cn(C(C)C)nc2-c2cc(Cl)cc(NS(C)(=O)=O)c2F)n1 [encorafenib]
Summary of the method: as §1

[8] = compound: COC(=O)[C@H](CCSC)NC(=O)C1=C(C=C(C=C1)NC[C@H](CS)N)C2=CC=CC=C2
Summary of the method: as §1

alisertib = compound: COc1cc(Nc2ncc3c(n2)-c2ccc(Cl)cc2C(c2c(F)cccc2OC)=NC3)ccc1C(=O)O [alisertib]
Summary of the method: as §1

[9] = compound: COc1cc2nc(-c3cc(F)ccc3O)nc(N[C@@H]3CNC[C@H]3C(C)(C)O)c2cc1OC
Summary of the method: as §1

gefitinib = compound: COc1cc2ncnc(Nc3ccc(F)c(Cl)c3)c2cc1OCCCN1CCOCC1 [gefitinib]
Summary of the method: as §1

vemurafenib = compound: CCCS(=O)(=O)Nc1ccc(F)c(C(=O)c2c[nH]c3ncc(-c4ccc(Cl)cc4)cc23)c1F [vemurafenib]
Summary of the method: as §1

defactinib = compound: CNC(=O)c1ccc(Nc2ncc(C(F)(F)F)c(NCc3nccnc3N(C)S(C)(=O)=O)n2)cc1 [defactinib]
Summary of the method: as §1

Measured: log2 fold change

FANCL isoform 2 (UniProt Q9NW38)
inactive: [1] -0.258 | barasertib -0.017 | [2] 0.167 | volasertib -0.169 | [3] 0.035 | [4] 0.015 | [5] -0.052 | saracatinib 0.07 | sotrastaurin -0.077 | alvocidib 0.036 | Tubastatin A -0.159 | [6] 0.016 | [7] -0.007 | encorafenib -0.136 | [8] -0.144 | alisertib -0.069 | [9] -0.081 | gefitinib -0.169

FKRP (UniProt Q9H9S5)
inactive: vemurafenib 0.047 | [1] -0.033 | [2] -0.005 | volasertib 0.1 | [3] -0.003 | [4] -0.296 | [5] 0.033 | saracatinib 0.051 | sotrastaurin 0.016 | alvocidib -0.173 | Tubastatin A 0.094 | [6] 0.05 | defactinib -0.072 | [7] 0.099 | encorafenib 0.03 | [8] -0.021 | [9] 0.036

FEN1 (UniProt I3L3E9)
inactive: vemurafenib -0.075 | [1] -0.077 | [2] -0.136 | volasertib -0.132 | [3] -0.004 | [4] 0.052 | [5] 0.033 | alvocidib 0.017 | Tubastatin A -0.032 | defactinib 0.044 | encorafenib 0.035 | [8] -0.05 | alisertib 0.016 | [9] 0.003 | gefitinib 0.078

FIZ1 (UniProt Q96SL8)
inactive: [1] 0 | barasertib -0.021 | volasertib -0.169 | [3] -0.132 | [4] -0.135 | [5] -0.002 | alvocidib 0.017 | Tubastatin A -0.129 | alisertib 0.012 | [9] 0.038 | gefitinib -0.058

FBXO45 (UniProt P0C2W1)
inactive: vemurafenib -0.064 | [1] 0.088 | barasertib 0.031 | [2] -0.077 | volasertib -0.04 | [3] 0.062 | [4] -0.002 | [5] 0.037 | sotrastaurin 0.028 | alvocidib -0.047 | Tubastatin A -0.162 | [6] -0.035 | defactinib -0.009 | encorafenib -0.062 | [8] -0.035 | alisertib 0.003 | [9] 0.02 | gefitinib -0.002

From the supplement of paper PMC10849652
